Results from patent publication US20230277452A1, “COMPOSITIONS, DEVICES AND METHODS FOR TREATING NASAL, OTIC AND OTHER TISSUE INFECTION AND/OR INFLAMMATION” (priority 2020, published 2023).
For some of these results: The name of at least one read-out is uncertain. For some of these results: For at least one compound, name, drawing or mass did not settle the structure. Some of these results come from one statement about several compounds together.

Tests used:
[1] = humans with psoriasis, topical betamethasone dipropionate 0.05% spray or lotion BID for 15 days; cited from earlier work
[2] = Forced degradation of fluticasone propionate, percent recovery by HPLC; type: physicochemical
Protocol: A similar analysis was performed of the 0.005% fluticasone propionate cream (lot #2021-07-01).

[3] = Recovery of force-degraded fluticasone propionate spiked into placebo and of active cream, HPLC; type: physicochemical
[4] = Forced degradation of neat mometasone furoate monohydrate, percent recovery and degradant peaks by HPLC; type: physicochemical
Protocol: Degradation and impurity analysis of the creams was performed using HPLC. The following parameters were used for the analysis of mometasone furoate monohydrate.
Neat mometasone furoate monohydrate (MFM) material was degraded and analyzed for potential chromatographic interference. Briefly, neat MFM was exposed to various conditions to induce degradation including heat (60° C./5 days), light (6 inches away from a white bench light for 5 days), acid (0.1N HCl for 1 hour followed by neutralization with 0.1N NaOH), base (0.1N NaOH for 1 hour followed by neutralization with 0.1N HCl), and oxidation (3% H2O2 for 1 hour). All samples including the degraded samples, control samples (dissolved in HPLC-grade methanol), and the reference solution were analyzed.
Percent recovery is provided in Table 48 below for each condition.
Table 49 below provides the Relative Retention Times (RRTs) and detection ≥0.05% for the samples.

[5] = Recovery of force-degraded MFM spiked into placebo cream and of active cream (0.1% MFM), HPLC; type: physicochemical
Protocol: MFM neat and degraded materials were spiked into placebo cream (lot #2020-11-01) to investigate potential partitioning effects and peak interferences and to compare spiked and active cream samples by the procedure in Table 50 with the exception that for acid, base and peroxide degradations, the additions of HCl, NaOH and peroxide were calculated accordingly.
Percent recovery of Force-Degraded Materials Spiked into Placebo is provided in Table 51 below while recovery of active cream formulation (0.1% MFM) is provided in Table 52 below.

[6] = Control (undegraded FP, kept at 4 C.)

C[C@H]1C[C@H]2[C@@H]3CCC4=CC(=O)C=C[C@]4(C)[C@@]3(F)[C@@H](O)C[C@]2(C)[C@@]1(O)C(=O)CO [Betamethasone, betamethasone]
plasma concentrations, up to [1]: up to 120 μg/mL

CCC(=O)O[C@]1(C(=O)SCF)[C@H](C)C[C@H]2[C@@H]3C[C@H](F)C4=CC(=O)C=C[C@]4(C)[C@@]3(F)[C@@H](O)C[C@@]21C [Fluticasone Propionate 0.005%]
% Recovery of fluticasone propionate, neat material ([2]; Acid (0.1N HCl, 1 hour)): 97.44% | % Recovery of fluticasone propionate, neat material ([2]; Base (0.1N NaOH, 1 hour)): 93.99% | % Recovery of fluticasone propionate, neat material [2, 6]: 100.6% | % Recovery of fluticasone propionate, neat material ([2]; Heat (60° C., 3 days)): 96.59% | % Recovery of fluticasone propionate, neat material ([2]; Light (white light, 3 days)): 93.29% | % Recovery of fluticasone propionate, neat material ([2]; Peroxide (3% H2O2, 1 hour)): 92.41% | % Recovery of Degraded Material, Spiked Placebo ([3]; 0.1N HC1 (1 hour)): 91.41% | % Recovery of Degraded Material, Spiked Placebo ([3]; 0.1N NaOH (1 hour)): 93.80% | % Recovery of Degraded Material, Spiked Placebo ([3]; 3% H2O2 (1 hour)): 96.44% | % Recovery of Degraded Material, Spiked Placebo ([3]; 60° C. (3 days)): 97.68% | % Recovery of Degraded Material, Spiked Placebo [3, 6]: 103.31% | % Recovery of Degraded Material, Spiked Placebo ([3]; White light (3 days)): 96.18%

C[C@@H]1C[C@H]2[C@@H]3CCC4=CC(=O)C=C[C@]4(C)[C@@]3(Cl)[C@@H](O)C[C@]2(C)[C@@]1(OC(=O)c1ccco1)C(=O)CCl [MFM, mometasone furoate monohydrate]
% Recovery of MFM, neat material ([4]; Acid (0.1N HCl, 1 hour)): 95.52% | % Recovery of MFM, neat material ([4]; Base (0.1N NaOH, 1 hour)): 2.42% | % Recovery of MFM, neat material ([4]; Control (neat MFM)): 99.48% | % Recovery of MFM, neat material ([4]; Heat (60° C., 5 days)): 98.33% | % Recovery of MFM, neat material ([4]; Light (white light, 5 days)): 98.90% | % Recovery of MFM, neat material ([4]; Peroxide (3% H2O2, 1 hour)): 98.36%

C[C@@H]1C[C@H]2[C@@H]3CCC4=CC(=O)C=C[C@]4(C)[C@@]3(Cl)[C@@H](O)C[C@]2(C)[C@@]1(OC(=O)c1ccco1)C(=O)CCl.O [Mometasone Furoate Momohydrate]
% Recovery of MFM, neat material ([4]; Acid (0.1N HCl, 1 hour)): 95.52% | % Recovery of MFM, neat material ([4]; Base (0.1N NaOH, 1 hour)): 2.42% | % Recovery of MFM, neat material ([4]; Control (neat MFM)): 99.48% | % Recovery of MFM, neat material ([4]; Heat (60° C., 5 days)): 98.33% | % Recovery of MFM, neat material ([4]; Light (white light, 5 days)): 98.90% | % Recovery of MFM, neat material ([4]; Peroxide (3% H2O2, 1 hour)): 98.36% | % Recovery of MFM, Spiked Placebo ([5]; 0.1N HC1 (1 hour)): 90.29% | % Recovery of MFM, Spiked Placebo ([5]; 0.1N NaOH (1 hour)): 2.29% | % Recovery of MFM, Spiked Placebo ([5]; 3% H2O2 (1 hour)): 93.16% | % Recovery of MFM, Spiked Placebo ([5]; 60° C. (5 days)): 93.37% | % Recovery of MFM, Spiked Placebo ([5]; Control (neat MFM)): 93.61% | % Recovery of MFM, Spiked Placebo ([5]; White light (5 days)): 93.61%

CCC(=O)O[C@]1(C(=O)SCF)[C@H](C)C[C@H]2[C@@H]3C[C@H](F)C4=CC(=O)C=C[C@]4(C)[C@@]3(F)[C@@H](O)C[C@@]21C [fluticasone propionate]
% Recovery of fluticasone propionate, neat material ([2]; Acid (0.1N HCl, 1 hour), listed as Fluticasone Propionate): 97.44% | % Recovery of fluticasone propionate, neat material ([2]; Base (0.1N NaOH, 1 hour), listed as Fluticasone Propionate): 93.99% | % Recovery of fluticasone propionate, neat material ([2]; Control (undegraded FP, kept at 4 C.), listed as Fluticasone Propionate): 100.6% | % Recovery of fluticasone propionate, neat material ([2]; Heat (60° C., 3 days), listed as Fluticasone Propionate): 96.59% | % Recovery of fluticasone propionate, neat material ([2]; Light (white light, 3 days), listed as Fluticasone Propionate): 93.29% | % Recovery of fluticasone propionate, neat material ([2]; Peroxide (3% H2O2, 1 hour), listed as Fluticasone Propionate): 92.41%
